PMC7969956
These are yes or no findings as the source states them, for the method shown. In cells and extracts the contact can be indirect. Some results given as binding are weak or reduced against the parent protein; the word gives no strength.

By UniProt entry, the sequences of proteins in these tests, tags left out. Residues count along the entry.
UniProt O14763, residues 56-440: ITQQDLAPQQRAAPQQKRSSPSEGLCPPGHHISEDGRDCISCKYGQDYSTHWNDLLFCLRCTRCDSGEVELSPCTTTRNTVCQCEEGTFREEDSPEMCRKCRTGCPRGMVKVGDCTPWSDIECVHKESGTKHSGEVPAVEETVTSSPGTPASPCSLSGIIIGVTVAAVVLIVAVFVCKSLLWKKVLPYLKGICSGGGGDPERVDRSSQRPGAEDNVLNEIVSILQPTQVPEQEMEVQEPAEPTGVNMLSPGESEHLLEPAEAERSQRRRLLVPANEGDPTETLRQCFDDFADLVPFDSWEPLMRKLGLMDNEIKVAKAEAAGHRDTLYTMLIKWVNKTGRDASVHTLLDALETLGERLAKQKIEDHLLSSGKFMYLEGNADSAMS
UniProt Q14790: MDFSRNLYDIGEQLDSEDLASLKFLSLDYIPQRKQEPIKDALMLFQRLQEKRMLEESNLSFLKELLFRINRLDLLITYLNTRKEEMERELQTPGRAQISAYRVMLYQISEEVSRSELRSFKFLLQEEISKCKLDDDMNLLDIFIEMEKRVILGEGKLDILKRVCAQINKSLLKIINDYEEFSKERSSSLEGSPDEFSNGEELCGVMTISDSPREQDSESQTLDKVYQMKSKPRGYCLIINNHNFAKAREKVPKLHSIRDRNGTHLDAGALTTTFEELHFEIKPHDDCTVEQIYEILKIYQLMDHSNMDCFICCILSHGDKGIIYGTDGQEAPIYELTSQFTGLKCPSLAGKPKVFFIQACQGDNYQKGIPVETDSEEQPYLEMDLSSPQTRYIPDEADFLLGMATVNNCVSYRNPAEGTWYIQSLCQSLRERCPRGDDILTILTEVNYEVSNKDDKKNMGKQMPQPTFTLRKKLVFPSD
UniProt Q13158: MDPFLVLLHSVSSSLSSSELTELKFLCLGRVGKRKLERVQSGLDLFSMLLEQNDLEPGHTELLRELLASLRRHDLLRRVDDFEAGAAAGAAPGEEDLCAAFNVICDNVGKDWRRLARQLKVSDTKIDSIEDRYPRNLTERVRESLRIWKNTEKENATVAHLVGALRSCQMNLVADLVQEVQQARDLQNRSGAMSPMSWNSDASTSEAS

How the values were obtained:
[1] = target: TRAIL Death Receptor 5 (DR5) (human (endogenous in A549)) (UniProt O14763); experiment: co-IP; anti-DR5 immunoprecipitation from lysates of A549 cells without apigenin (DMSO, or 100 ng/ml TRAIL for 6 h); NP-40 buffer with 20 mM Tris-Cl, 150 mM NaCl, 1% NP-40, 10% glycerol; blots with anti-Hsp70, anti-caspase-8, anti-FADD and anti-DR5
[2] = target: TRAIL Death Receptor 5 (DR5) (human (endogenous in A549)) (UniProt O14763); experiment: co-IP; anti-DR5 immunoprecipitation from lysates of A549 cells transiently overexpressing myc-Hsp70, treated with vehicle (DMSO) or with 50 uM apigenin for 18 h then 100 ng/ml TRAIL for 6 h; blots as in Fig. 5a
[3] = target: TRAIL Death Receptor 5 (DR5) (human (endogenous in A549)) (UniProt O14763); experiment: co-IP; anti-DR5 immunoprecipitation from lysates of A549 cells pretreated with 50 uM apigenin for 18 h, then 25 or 100 ng/ml TRAIL or DMSO for 6 h; NP-40 buffer with 20 mM Tris-Cl, 150 mM NaCl, 1% NP-40, 10% glycerol; blots with anti-Hsp70, anti-caspase-8, anti-FADD and anti-DR5

caspase-8 (from UniProt Q14790 1-479) (enzyme)
binding [1]: binds weakly

Fas-Associated Death Domain (FADD) (from UniProt Q13158 1-208)
binding [2]: binds
binding [1]: binds weakly
binding [3]: binds
